Results are given in words; binding and its absence hold for the method and conditions named. In cells and extracts the contact can be indirect. Some entries that bind do so weakly or less than the wild type.
Biological target: T1, Phosphomevalonate kinase (PMVK) (human (endogenous in Huh7 and Hep3B)) (UniProt Q15126)
T1 sequence: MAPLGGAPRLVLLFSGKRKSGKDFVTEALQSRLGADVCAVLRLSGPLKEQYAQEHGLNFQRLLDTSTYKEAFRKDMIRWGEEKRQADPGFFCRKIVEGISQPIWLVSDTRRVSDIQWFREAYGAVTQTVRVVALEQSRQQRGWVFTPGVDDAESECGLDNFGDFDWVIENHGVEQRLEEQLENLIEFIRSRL
Assay: co-IP; endogenous proteins in Huh7 and Hep3B cell lines; anti-PMVK antibody (H-9) from mouse as IP antibody, mouse IgG as negative control; immunoblot

The chains behind the UniProt entries cited, without tags or fusion partners.
UniProt P35222: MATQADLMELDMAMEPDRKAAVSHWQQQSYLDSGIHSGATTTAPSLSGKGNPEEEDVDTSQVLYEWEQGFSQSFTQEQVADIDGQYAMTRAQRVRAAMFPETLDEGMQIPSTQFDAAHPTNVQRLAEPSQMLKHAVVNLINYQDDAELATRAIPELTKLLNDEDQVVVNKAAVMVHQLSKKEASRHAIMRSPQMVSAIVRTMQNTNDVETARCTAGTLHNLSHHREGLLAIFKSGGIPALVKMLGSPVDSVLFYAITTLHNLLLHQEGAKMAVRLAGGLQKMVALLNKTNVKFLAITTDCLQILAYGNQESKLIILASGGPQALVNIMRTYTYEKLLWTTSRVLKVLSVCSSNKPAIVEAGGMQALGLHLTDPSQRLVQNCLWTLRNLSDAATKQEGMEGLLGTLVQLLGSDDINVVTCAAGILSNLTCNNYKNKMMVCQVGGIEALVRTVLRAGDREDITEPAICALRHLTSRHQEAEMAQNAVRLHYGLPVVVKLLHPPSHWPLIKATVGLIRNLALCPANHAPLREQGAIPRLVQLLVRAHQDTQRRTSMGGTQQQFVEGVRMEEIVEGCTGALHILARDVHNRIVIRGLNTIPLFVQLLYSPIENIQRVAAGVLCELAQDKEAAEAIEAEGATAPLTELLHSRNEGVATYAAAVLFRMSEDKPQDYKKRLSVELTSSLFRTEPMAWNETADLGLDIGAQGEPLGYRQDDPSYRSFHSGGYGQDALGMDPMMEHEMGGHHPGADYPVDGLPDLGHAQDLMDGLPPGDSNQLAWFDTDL

binding: binds
Substance: β-catenin (from UniProt P35222 1-781)
